Test results reported in US20050002923A1 (published 2005).

Test system: UvrABC with Δβh UvrB (Bca) UvrB deletion Gln97-Asp112 replaced by Gly (Bacillus caldotenax)
Test: enzyme reaction in vitro
Conditions: internal fluorescein adduct at n (position 12) of the 26-mer [strand 1 position 12 (fluorescein-adducted T, opposite A)]; no incision; 42 C 1 h; purified recombinant protein; protein details: tag-free, purified via intein-CBD fusions; label: 5'-32P on 26-mer; letters built from the parent sequence and the stated change

## TAGATTTAGTTTGACCATTAGATACA / AAATGTATCTAATGGTCAAACTAAATCTACTCGTT [HS1F-M13mp19(+)]
  activity on this sequence: not active

A negative result means that nothing was seen under these conditions.
